This is an account of results in publication PMC5354814, “In silico and in vitro drug screening identifies new therapeutic approaches for Ewing sarcoma” (Oncotarget, 2016).

Holding throughout (assay): In vitro high-throughput screen of FDA-approved drug library (CellTiter-Glo)
Common to all, as to format: cell-based
For orientation: Cellular ATP, detected with luciferase, serves as a proxy for viable cell number.

One test relates to A673. Conditions: Homo sapiens, 1 μmol/L drug, 72 hours. The method, then:
(§1) We screened, in parallel to the three computational approaches, an FDA-approved drug library containing 2,316 drugs (1,536 unique chemical entities). […] The drug screening study protocol employed is summarized in Supplementary Table S1.
(§2) Cells were grown to 80–90% confluence, harvested and aliquoted into 384-well plates (black μClear microplates, Greiner bio-one, Germany) at concentrations of 750–1,500 cells per well in a total volume of 25 μl/well using a Matrix Wellmate (Thermo Scientific). Cells were cultured for 72 hours in a 5% CO2 atmosphere at 37°C. Aliquots of 25 μl CellTiter-Glo® Reagent (Promega) were added directly to each well, the plates were incubated at room temperature for 20 min and the luminescence signal was measured according to the manufacturer's protocol. The measurements were made using Infinite® M200 Pro plate reader (Tecan, Switzerland). […] Data were normalized to percentage inhibition. […]
(§3) (A) Color scale for drug inhibition values. […]

The next test concerns RD-ES. Conditions: 1 μmol/L drug, 72 hours. Here is the method:
as §1, §2, §3

For a further test, the system named is Hs 919.T. Conditions: 1 μmol/L drug, 72 hours, control cell line. Here is the method:
as §1, §2, §3

A further test has as its system SK-ES-1. Conditions: Homo sapiens, SK-ES1; 1 μmol/L drug, 72 hours. Here is the method: as §1, §2, §3

Turning to `O=C(CCCCCCC(=O)Nc1ccccc1)NO` [Vorinostat], the inhibition at 1 µM in the test on A673 was under 50%; in the test on RD-ES, 61%; in the test on Hs 919.T. it was under 50%; in the test on SK-ES-1, under 50%.

One may read the inhibition as the relative decrease from the control value, in per cent. A lower inhibition goes with little suppression.
